Results taken from US20250101134A1, “ANAPLASTIC LYMPHOMA KINASE ANTIBODIES AND METHODS OF USE THEREOF” (The Children's Hospital of Philadelphia, priority 2022, published 2025).
No constants are given. Whether binding was seen depends on the method and setting. Some binding calls cover weakened binding; strength is not graded here.

Protein sequences, listed by entry. Tags and fused reporters are not part of them. Lines headed by an entry give the natural chain unless they say otherwise; changes in a name come on top.
UniProt Q9UM73: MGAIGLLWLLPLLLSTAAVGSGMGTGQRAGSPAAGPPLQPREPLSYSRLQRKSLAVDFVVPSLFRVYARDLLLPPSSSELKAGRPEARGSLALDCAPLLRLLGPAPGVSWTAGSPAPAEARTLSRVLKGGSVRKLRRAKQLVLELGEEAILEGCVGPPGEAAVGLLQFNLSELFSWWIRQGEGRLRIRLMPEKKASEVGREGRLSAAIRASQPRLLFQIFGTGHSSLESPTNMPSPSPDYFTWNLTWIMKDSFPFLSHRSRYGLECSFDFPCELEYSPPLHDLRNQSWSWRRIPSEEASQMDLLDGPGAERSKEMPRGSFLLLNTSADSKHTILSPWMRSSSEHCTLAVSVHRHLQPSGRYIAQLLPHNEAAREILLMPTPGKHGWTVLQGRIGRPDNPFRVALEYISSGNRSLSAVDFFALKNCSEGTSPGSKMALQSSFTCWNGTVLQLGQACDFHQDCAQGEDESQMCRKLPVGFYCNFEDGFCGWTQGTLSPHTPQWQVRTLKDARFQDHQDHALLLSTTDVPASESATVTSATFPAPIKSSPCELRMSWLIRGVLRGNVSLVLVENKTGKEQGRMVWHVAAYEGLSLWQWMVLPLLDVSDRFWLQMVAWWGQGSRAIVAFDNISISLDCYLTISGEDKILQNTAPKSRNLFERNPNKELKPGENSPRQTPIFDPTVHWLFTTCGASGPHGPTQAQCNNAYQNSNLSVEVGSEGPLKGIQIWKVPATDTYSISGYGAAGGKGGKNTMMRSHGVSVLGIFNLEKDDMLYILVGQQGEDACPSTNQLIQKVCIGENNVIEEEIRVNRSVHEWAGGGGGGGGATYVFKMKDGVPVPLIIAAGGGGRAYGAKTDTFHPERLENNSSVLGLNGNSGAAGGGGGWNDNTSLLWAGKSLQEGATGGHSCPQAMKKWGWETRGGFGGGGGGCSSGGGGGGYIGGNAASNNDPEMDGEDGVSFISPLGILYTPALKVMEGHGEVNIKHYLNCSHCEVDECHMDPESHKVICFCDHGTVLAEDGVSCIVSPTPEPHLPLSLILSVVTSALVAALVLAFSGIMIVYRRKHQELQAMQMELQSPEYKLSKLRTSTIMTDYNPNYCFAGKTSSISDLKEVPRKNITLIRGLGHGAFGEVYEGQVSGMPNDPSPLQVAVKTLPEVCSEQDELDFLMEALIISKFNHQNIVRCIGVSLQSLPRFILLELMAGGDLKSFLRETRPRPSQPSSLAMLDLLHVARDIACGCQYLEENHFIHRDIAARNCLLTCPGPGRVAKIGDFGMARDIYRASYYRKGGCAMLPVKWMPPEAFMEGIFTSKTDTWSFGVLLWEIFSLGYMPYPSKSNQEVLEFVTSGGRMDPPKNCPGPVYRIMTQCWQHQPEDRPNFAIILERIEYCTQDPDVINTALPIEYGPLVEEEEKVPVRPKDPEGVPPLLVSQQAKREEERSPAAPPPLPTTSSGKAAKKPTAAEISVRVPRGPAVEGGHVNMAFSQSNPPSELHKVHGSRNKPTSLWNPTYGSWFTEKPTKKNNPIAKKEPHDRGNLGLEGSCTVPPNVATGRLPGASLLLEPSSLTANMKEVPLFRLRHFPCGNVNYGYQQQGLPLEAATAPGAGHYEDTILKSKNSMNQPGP

Assays:
[1] = target: cell surface ALK on neuroblastoma cells (IMR32, SY5Y-D3, SY5Y) (human) (UniProt Q9UM73); test: flow cytometry, 1 uM VH20, anti-Flag-PE detection
[2] = target: ALK extracellular domain expressed on the cell surface of 293T cells (293T-ALK) (Homo sapiens, UniProt Q9UM73); test: flow cytometry, 1 uM VH on 293T-ALK cells, anti-FLAG-PE detection

B1: VH20 (other)
VH: EVQLVESGGGVVQPGRSLRLSCAASGFTFSSYAMHWVRQAPGKGLEWVAAIWYDGSNQYYADSVKGRFTISRDDSTNTLYLQMNSLRAEDTALYYCAKSSYYDSSGYYFPYGYWGQGTLVTVSS
notes: Single-domain antibody (isolated VH domain) found by phage panning on the ALK G-rich domain antigen; For the internalization assay it was labelled with pHrodo Deep Red dye
[1]
  binding: binds
[2]
  binding: binds
